# Some of the results follow.
# Chains of the proteins cited; added tags and fusions are not shown. Lines headed by an entry give the natural chain unless they say otherwise; changes in a name come on top.
# UniProt Q96EU6: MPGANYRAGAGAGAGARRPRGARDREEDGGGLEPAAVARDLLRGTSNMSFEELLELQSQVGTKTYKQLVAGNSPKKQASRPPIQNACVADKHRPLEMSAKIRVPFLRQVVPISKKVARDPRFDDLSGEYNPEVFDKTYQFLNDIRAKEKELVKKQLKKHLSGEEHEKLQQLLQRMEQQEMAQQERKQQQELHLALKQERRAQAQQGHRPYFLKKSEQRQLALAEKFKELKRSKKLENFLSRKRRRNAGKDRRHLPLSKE
# UniProt P67812: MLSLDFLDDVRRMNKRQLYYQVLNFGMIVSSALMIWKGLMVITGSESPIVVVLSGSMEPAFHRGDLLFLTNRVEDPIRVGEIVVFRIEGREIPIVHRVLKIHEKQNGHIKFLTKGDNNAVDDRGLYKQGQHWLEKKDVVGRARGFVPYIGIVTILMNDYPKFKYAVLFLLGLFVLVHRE
# UniProt Q9UPN6: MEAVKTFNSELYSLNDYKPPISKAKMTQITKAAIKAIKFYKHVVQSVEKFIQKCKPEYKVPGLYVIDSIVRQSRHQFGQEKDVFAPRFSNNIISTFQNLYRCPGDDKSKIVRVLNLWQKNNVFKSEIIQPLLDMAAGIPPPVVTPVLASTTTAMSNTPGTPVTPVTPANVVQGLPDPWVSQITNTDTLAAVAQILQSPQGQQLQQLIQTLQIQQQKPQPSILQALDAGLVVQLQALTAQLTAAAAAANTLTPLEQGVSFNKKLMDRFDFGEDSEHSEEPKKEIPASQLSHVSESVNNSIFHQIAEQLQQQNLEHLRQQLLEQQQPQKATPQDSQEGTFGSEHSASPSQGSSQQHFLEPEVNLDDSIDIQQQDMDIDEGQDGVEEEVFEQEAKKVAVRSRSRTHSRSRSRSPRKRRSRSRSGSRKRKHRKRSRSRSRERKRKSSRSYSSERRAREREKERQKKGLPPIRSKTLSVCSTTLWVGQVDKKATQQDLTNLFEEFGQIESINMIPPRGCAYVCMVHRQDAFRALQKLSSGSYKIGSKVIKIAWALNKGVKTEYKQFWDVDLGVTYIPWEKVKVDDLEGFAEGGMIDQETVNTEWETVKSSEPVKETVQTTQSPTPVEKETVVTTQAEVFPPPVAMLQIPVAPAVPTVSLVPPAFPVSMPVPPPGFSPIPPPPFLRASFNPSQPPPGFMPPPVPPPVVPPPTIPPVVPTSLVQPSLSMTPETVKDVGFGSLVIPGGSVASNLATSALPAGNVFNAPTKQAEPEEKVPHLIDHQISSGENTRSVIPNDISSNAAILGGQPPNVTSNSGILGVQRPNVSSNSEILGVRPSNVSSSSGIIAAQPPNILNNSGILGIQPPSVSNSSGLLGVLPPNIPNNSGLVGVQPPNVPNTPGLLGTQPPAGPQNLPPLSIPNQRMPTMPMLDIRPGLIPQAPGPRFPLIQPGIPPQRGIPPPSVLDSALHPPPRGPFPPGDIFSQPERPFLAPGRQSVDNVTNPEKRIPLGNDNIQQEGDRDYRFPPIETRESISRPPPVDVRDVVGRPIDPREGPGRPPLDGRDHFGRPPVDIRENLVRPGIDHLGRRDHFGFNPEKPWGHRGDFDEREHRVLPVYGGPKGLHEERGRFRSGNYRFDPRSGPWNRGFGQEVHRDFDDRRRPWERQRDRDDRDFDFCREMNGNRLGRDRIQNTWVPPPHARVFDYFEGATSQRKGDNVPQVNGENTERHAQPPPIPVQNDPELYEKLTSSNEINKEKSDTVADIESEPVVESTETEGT
# UniProt Q5VWQ0: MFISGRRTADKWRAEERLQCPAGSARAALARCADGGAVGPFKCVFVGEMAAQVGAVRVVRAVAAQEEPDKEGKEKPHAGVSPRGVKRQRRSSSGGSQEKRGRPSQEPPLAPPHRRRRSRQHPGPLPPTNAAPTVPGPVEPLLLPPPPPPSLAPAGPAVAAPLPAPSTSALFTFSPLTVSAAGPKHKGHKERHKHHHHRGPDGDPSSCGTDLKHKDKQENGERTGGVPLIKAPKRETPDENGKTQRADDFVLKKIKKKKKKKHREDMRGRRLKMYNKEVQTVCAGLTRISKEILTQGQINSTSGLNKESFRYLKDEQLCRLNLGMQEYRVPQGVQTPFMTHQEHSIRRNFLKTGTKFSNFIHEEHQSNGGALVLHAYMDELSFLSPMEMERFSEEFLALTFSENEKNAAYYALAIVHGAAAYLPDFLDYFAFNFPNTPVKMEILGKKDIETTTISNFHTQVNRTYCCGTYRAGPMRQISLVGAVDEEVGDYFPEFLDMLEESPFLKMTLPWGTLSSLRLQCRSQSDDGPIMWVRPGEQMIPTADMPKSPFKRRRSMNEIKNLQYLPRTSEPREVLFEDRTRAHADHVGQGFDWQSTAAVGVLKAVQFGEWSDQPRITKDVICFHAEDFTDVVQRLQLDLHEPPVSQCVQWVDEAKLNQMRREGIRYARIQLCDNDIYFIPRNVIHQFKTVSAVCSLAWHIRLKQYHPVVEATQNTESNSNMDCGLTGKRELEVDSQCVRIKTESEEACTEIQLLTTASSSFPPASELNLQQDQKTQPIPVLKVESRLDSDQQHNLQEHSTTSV
# UniProt O00422: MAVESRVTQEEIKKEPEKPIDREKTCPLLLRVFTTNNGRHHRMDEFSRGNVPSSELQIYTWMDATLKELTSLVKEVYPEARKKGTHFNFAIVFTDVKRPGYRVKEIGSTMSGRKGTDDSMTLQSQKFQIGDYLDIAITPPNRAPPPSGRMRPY
# UniProt Q96IZ7: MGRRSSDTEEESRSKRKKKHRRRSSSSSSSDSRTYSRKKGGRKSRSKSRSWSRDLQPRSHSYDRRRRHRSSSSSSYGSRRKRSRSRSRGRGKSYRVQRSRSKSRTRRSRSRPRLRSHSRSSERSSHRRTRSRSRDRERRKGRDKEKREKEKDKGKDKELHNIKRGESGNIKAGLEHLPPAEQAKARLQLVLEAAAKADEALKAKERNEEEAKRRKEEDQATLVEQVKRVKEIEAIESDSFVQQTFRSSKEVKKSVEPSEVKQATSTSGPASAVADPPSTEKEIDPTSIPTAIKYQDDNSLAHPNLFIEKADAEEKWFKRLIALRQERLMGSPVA
# UniProt Q6P3W7: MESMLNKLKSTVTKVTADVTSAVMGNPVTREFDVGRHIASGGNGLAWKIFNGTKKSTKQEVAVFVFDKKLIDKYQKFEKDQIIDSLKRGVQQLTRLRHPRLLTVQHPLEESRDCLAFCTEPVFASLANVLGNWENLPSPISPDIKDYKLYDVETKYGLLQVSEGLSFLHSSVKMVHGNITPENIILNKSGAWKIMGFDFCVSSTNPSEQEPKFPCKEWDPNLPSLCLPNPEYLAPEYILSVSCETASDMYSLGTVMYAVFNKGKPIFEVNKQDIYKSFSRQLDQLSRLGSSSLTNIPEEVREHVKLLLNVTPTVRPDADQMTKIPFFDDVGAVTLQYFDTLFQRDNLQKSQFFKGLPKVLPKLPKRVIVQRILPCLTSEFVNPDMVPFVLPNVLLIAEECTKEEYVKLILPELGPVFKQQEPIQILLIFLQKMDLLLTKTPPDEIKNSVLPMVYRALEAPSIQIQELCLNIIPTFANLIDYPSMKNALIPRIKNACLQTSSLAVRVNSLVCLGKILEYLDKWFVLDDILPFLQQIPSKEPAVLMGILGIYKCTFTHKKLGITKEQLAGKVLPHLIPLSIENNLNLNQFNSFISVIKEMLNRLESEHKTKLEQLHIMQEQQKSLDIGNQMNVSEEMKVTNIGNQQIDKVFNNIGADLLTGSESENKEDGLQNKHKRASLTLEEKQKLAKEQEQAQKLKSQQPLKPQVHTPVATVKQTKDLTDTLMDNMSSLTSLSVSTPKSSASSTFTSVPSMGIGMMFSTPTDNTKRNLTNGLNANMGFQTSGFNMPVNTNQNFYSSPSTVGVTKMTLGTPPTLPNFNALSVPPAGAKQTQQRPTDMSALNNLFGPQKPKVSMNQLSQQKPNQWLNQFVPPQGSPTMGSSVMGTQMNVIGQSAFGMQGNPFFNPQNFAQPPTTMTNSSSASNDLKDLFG
# UniProt Q9H446: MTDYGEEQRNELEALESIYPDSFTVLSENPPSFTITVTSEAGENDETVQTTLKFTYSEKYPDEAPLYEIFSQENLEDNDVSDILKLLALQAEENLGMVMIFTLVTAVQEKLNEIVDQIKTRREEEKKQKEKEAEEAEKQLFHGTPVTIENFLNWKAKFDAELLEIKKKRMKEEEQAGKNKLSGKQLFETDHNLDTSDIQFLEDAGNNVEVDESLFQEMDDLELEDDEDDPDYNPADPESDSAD
# UniProt Q6NW29: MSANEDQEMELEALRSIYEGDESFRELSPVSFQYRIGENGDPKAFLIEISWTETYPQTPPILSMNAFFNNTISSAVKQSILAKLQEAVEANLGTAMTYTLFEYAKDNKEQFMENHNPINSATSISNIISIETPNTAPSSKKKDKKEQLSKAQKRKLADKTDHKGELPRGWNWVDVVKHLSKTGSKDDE
# UniProt Q9Y3I0: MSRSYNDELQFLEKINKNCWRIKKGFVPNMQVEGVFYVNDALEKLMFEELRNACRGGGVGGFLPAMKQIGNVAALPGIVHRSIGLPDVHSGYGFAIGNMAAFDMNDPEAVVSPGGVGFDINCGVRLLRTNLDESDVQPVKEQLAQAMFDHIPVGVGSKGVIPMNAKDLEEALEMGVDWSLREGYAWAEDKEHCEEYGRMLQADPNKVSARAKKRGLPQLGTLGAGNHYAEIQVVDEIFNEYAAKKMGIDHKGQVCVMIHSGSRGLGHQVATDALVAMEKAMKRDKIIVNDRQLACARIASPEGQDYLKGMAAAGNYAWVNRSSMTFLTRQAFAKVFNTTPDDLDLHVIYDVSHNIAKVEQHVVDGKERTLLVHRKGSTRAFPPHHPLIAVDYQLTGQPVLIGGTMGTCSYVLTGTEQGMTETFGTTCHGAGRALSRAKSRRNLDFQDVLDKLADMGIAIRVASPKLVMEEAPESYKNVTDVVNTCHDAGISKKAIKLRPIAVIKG
# UniProt Q9NRP4: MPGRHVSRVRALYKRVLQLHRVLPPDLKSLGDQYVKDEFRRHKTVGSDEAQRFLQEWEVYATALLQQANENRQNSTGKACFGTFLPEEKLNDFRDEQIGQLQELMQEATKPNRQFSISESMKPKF
# UniProt Q9BY50: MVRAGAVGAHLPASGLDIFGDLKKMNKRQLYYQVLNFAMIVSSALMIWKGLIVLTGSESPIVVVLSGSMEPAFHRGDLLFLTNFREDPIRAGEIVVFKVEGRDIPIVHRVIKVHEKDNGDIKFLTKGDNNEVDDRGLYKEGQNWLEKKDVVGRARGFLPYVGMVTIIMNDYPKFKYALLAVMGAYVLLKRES
# UniProt P25815: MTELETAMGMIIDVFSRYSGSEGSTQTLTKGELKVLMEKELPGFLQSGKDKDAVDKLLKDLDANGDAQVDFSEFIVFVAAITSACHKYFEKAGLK
# UniProt Q9Y6U3: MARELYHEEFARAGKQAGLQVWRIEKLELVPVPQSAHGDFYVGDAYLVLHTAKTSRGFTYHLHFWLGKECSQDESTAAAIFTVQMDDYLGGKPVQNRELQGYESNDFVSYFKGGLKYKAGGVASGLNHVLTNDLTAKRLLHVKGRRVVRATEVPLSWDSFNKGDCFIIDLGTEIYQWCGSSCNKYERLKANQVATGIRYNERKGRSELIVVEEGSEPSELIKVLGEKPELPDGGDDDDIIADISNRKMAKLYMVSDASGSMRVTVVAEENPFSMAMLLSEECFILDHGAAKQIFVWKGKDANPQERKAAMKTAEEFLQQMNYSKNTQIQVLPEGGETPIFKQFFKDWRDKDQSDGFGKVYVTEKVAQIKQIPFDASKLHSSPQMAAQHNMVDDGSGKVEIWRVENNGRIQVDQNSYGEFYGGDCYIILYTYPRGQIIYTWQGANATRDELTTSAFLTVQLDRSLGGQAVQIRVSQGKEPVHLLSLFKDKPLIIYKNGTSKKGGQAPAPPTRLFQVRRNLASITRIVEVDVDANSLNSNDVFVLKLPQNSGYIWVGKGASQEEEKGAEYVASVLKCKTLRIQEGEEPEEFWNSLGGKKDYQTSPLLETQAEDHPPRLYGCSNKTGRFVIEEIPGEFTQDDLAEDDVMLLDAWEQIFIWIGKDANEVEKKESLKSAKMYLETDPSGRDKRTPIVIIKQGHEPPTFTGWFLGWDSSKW
# UniProt O43819: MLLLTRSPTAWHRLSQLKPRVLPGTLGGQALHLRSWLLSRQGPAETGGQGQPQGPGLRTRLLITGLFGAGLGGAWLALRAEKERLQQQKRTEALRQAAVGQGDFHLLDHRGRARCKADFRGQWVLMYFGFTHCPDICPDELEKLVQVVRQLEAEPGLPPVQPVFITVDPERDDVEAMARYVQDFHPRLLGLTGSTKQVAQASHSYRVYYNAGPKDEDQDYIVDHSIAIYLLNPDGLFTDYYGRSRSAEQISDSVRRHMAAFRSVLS
# UniProt O15126: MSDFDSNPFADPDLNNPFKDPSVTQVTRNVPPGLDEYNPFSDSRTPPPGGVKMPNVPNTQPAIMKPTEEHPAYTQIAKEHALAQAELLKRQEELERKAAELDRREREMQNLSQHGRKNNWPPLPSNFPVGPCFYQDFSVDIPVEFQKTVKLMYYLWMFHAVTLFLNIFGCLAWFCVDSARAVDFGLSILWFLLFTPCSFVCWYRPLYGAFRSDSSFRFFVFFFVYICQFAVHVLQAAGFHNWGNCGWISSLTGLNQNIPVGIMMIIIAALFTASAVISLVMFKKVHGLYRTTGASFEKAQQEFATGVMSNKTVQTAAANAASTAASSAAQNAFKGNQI
# Compound: NC(=O)c1cnc(N[C@@H]2CCCC[C@@H]2N)nc1Nc1cccc(-n2nccn2)c1
# Assay: log2 fold change, soluble protein after heating vs DMSO (PISA); higher = thermal stabilisation; K562 cells, 10 uM, 30 min; active = over 0.2 and 3.5 SD of the protein, either way, in both replicates (recomputed)
# How it was run: (§1)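 Soluble protein was quantified by TMTpro 16plex LC-MS/MS after channel sums were equalised. It was obtained as the supernatant after 21,000xg for 90 min from pooled aliquots of K562 cells (2×10^6 cells/mL, 10 μM compound, 30 min) heated for 3 min across 48°C-58°C and extracted in PBS with 0.5% NP-40 at 4°C. Thermal stability values are relative to control samples and come from duplicates. They are given as log2 fold changes.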
row,Target,log2 fold change
1,S100A11 (UniProt P31949),inactive: -0.029
2,SASH1 (UniProt O94885),inactive: -0.06
3,RRP36 (UniProt Q96EU6),inactive: 0.108
4,SEC11A isoform 3 (UniProt P67812),inactive: -0.051
5,SCAF8 isoform 2 (UniProt Q9UPN6),inactive: -0.028
6,RSBN1 (UniProt Q5VWQ0),inactive: 0.019
7,SAP18 isoform 2 (UniProt O00422),inactive: -0.067
8,SCARB2 (UniProt Q14108),inactive: 0.035
9,RSRC1 (UniProt Q96IZ7),inactive: 0.162
10,SEC23IP (UniProt Q9Y6Y8),inactive: -0.152
11,SCYL2 (UniProt Q6P3W7),inactive: -0.038
12,RWDD1 (UniProt Q9H446),inactive: -0.058
13,RTN4IP1 (UniProt Q8WWV3),inactive: -0.218
14,SDHAF2 (UniProt Q9NX18),inactive: 0.156
15,SCFD2 (UniProt Q8WU76),inactive: 0.012
16,S100PBP (UniProt Q96BU1),inactive: -0.009

row,Target,log2 fold change
1,RWDD4 (UniProt Q6NW29),inactive: -0.12
2,SAFB isoform 3 (UniProt Q15424),inactive: 0.024
3,RTCB (UniProt Q9Y3I0),inactive: 0.023
4,SDHC (UniProt Q99643),inactive: 0.097
5,SDHAF3 (UniProt Q9NRP4),inactive: -0.064
6,SAR1B (UniProt Q9Y6B6),inactive: -0.032
7,SBDS (UniProt Q9Y3A5),inactive: -0.077
8,SEC11C (UniProt Q9BY50),inactive: -0.023
9,S100P (UniProt P25815),inactive: 0.029
10,SCIN (UniProt Q9Y6U3),inactive: -0.224
11,RTF2 (UniProt Q9BY42),inactive: 0.012
12,SCG3 (UniProt Q8WXD2),inactive: -0.051
13,SCO2 (UniProt O43819),inactive: -0.078
14,SCAMP1 (UniProt O15126),inactive: -0.013
15,SCAMP3 (UniProt O14828),inactive: 0.011
16,RRP12 (UniProt Q5JTH9),inactive: 0.188

# Compound: NC1(c2ccc(-c3nc4ccn5c(=O)[nH]nc5c4cc3-c3ccccc3)cc2)CCC1
# Assay: as above
# How it was run: as §1
row,Target,log2 fold change
1,S100A11 (UniProt P31949),inactive: 0.033
2,SASH1 (UniProt O94885),inactive: -0.053
3,RRP36 (UniProt Q96EU6),inactive: 0.271
4,SEC11A isoform 3 (UniProt P67812),inactive: -0.074
5,SCAF8 isoform 2 (UniProt Q9UPN6),inactive: -0.086
6,RSBN1 (UniProt Q5VWQ0),inactive: 0.169
7,SAP18 isoform 2 (UniProt O00422),inactive: 0.245
8,SCARB2 (UniProt Q14108),inactive: -0.084
9,RSRC1 (UniProt Q96IZ7),inactive: -0.005
10,SEC23IP (UniProt Q9Y6Y8),inactive: -0.221
11,SCYL2 (UniProt Q6P3W7),inactive: -0.068
12,RWDD1 (UniProt Q9H446),inactive: 0.018
13,RTN4IP1 (UniProt Q8WWV3),inactive: -0.085
14,SDHAF2 (UniProt Q9NX18),inactive: -0.089
15,SCFD2 (UniProt Q8WU76),inactive: -0.079
16,S100PBP (UniProt Q96BU1),inactive: 0.056

row,Target,log2 fold change
1,RWDD4 (UniProt Q6NW29),inactive: -0.109
2,SAFB isoform 3 (UniProt Q15424),inactive: 0.384
3,RTCB (UniProt Q9Y3I0),inactive: -0.022
4,SDHC (UniProt Q99643),inactive: -0.079
5,SDHAF3 (UniProt Q9NRP4),inactive: -0.098
6,SAR1B (UniProt Q9Y6B6),inactive: -0.108
7,SBDS (UniProt Q9Y3A5),inactive: -0.155
8,SEC11C (UniProt Q9BY50),inactive: -0.161
9,S100P (UniProt P25815),inactive: 0.025
10,SCIN (UniProt Q9Y6U3),inactive: 0.003
11,RTF2 (UniProt Q9BY42),inactive: 0.124
12,SCG3 (UniProt Q8WXD2),inactive: 0.114
13,SCO2 (UniProt O43819),inactive: 0.015
14,SCAMP1 (UniProt O15126),inactive: -0.022
15,SCAMP3 (UniProt O14828),inactive: 0.037
16,RRP12 (UniProt Q5JTH9),inactive: 0.089

# Compound: NCC(=O)Nc1ccc(-n2nc(C(F)(F)F)cc2-c2ccc3c(ccc4ccccc43)c2)cc1
# Assay: as above
# How it was run: as §1
row,Target,log2 fold change
1,S100A11 (UniProt P31949),inactive: -0.001
2,SASH1 (UniProt O94885),inactive: -0.147
3,RRP36 (UniProt Q96EU6),inactive: 0.098
4,SEC11A isoform 3 (UniProt P67812),inactive: -0.058
5,SCAF8 isoform 2 (UniProt Q9UPN6),inactive: -0.044
6,RSBN1 (UniProt Q5VWQ0),inactive: 0.085
7,SAP18 isoform 2 (UniProt O00422),inactive: -0.062
8,SCARB2 (UniProt Q14108),inactive: 0.128
9,RSRC1 (UniProt Q96IZ7),inactive: -0.013
10,SEC23IP (UniProt Q9Y6Y8),inactive: -0.033
11,SCYL2 (UniProt Q6P3W7),inactive: -0.096
12,RWDD1 (UniProt Q9H446),inactive: -0.051
13,RTN4IP1 (UniProt Q8WWV3),inactive: -0.024
14,SDHAF2 (UniProt Q9NX18),inactive: -0.007
15,SCFD2 (UniProt Q8WU76),inactive: 0.034
16,S100PBP (UniProt Q96BU1),inactive: 0.109

row,Target,log2 fold change
1,RWDD4 (UniProt Q6NW29),inactive: -0.027
2,SAFB isoform 3 (UniProt Q15424),inactive: -0.107
3,RTCB (UniProt Q9Y3I0),inactive: 0.031
4,SDHC (UniProt Q99643),inactive: 0.041
5,SDHAF3 (UniProt Q9NRP4),inactive: 0.024
6,SAR1B (UniProt Q9Y6B6),inactive: -0.041
7,SBDS (UniProt Q9Y3A5),inactive: -0.088
8,SEC11C (UniProt Q9BY50),inactive: -0.061
9,S100P (UniProt P25815),inactive: 0.028
10,SCIN (UniProt Q9Y6U3),inactive: -0.011
11,RTF2 (UniProt Q9BY42),inactive: -0.081
12,SCG3 (UniProt Q8WXD2),inactive: 0.061
13,SCO2 (UniProt O43819),inactive: 0.006
14,SCAMP1 (UniProt O15126),inactive: -0.065
15,SCAMP3 (UniProt O14828),inactive: 0.028
16,RRP12 (UniProt Q5JTH9),inactive: 0.051
